According to publication doi:10.1101/2023.03.29.534722:
No constants are given. Whether binding was seen depends on the method and setting. In cells and extracts the contact can be indirect. These calls come from enrichment with a bait or labelling near it, and not all partners need be listed. Sequences can lack the tags named with a protein.

By UniProt entry, the sequences of proteins in these tests, tags left out.
UniProt P53224: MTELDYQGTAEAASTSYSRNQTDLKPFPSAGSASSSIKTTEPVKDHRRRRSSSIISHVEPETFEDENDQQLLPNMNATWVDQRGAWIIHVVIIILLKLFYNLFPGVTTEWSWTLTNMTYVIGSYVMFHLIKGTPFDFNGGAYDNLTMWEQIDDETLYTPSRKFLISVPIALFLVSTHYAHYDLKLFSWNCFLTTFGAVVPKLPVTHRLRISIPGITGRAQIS

T1: SPOT-ALFA-tagged Lcb2 (serine palmitoyltransferase catalytic subunit Lcb2) (yeast) (UniProt P40970)
T1 sequence: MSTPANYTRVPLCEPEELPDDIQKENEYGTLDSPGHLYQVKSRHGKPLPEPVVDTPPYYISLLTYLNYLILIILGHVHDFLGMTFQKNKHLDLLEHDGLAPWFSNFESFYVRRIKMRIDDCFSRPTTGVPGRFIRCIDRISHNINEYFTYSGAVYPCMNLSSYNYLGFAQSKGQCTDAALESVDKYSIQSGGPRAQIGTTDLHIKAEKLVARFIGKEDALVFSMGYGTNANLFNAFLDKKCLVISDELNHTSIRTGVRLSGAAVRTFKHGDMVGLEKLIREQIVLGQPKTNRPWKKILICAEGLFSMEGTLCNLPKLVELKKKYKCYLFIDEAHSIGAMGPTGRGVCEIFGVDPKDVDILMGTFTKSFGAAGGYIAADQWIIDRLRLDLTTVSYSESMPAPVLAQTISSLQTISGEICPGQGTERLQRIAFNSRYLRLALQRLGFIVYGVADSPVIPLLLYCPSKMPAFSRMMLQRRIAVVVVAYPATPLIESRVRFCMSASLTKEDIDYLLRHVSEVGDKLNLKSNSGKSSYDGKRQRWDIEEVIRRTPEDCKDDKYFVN

B1: Lcb1 (serine palmitoyltransferase catalytic subunit) (protein, UniProt P25045 1-558)
chain: MAHIPEVLPKSIPIPAFIVTTSSYLWYYFNLVLTQIPGGQFIVSYIKKSHHDDPYRTTVEIGLILYGIIYYLSKPQQKKSLQAQKPNLSPQEIDALIEDWEPEPLVDPSATDEQSWRVAKTPVTMEMPIQNHITITRNNLQEKYTNVFNLASNNFLQLSATEPVKEVVKTTIKNYGVGACGPAGFYGNQDVHYTLEYDLAQFFGTQGSVLYGQDFCAAPSVLPAFTKRGDVIVADDQVSLPVQNALQLSRSTVYYFNHNDMNSLECLLNELTEQEKLEKLPAIPRKFIVTEGIFHNSGDLAPLPELTKLKNKYKFRLFVDETFSIGVLGATGRGLSEHFNMDRATAIDITVGSMATALGSTGGFVLGDSVMCLHQRIGSNAYCFSACLPAYTVTSVSKVLKLMDSNNDAVQTLQKLSKSLHDSFASDDSLRSYVIVTSSPVSAVLHLQLTPAYRSRKFGYTCEQLFETMSALQKKSQTNKFIEPYEEEEKFLQSIVDHALINYNVLITRNTIVLKQETLPIVPSLKICCNAAMSPEELKNACESVKQSILACCQESNK
B2: Orm2 (protein, UniProt Q06144 1-216)
chain: MIDRTKNESPAFEESPLTPNVSNLKPFPSQSNKISTPVTDHRRRRSSSVISHVEQETFEDENDQQMLPNMNATWVDQRGAWLIHIVVIVLLRLFYSLFGSTPKWTWTLTNMTYIIGFYIMFHLVKGTPFDFNGGAYDNLTMWEQINDETLYTPTRKFLLIVPIVLFLISNQYYRNDMTLFLSNLAVTVLIGVVPKLGITHRLRISIPGITGRAQIS
B3: Sac1 (phosphatidylinositol-4-phosphate phosphatase) (protein, UniProt P32368 1-623)
chain: MTGPIVYVQNADGIFFKLAEGKGTNDAVIHLANQDQGVRVLGAEEFPVQGEVVKIASLMGFIKLKLNRYAIIANTVEETGRFNGHVFYRVLQHSIVSTKFNSRIDSEEAEYIKLLELHLKNSTFYFSYTYDLTNSLQRNEKVGPAASWKTADERFFWNHYLTEDLRNFAHQDPRIDSFIQPVIYGYAKTVDAVLNATPIVLGLITRRSIFRAGTRYFRRGVDKDGNVGNFNETEQILLAENPESEKIHVFSFLQTRGSVPIYWAEINNLKYKPNLVLGENSLDATKKHFDQQKELYGDNYLVNLVNQKGHELPVKEGYESVVHALNDPKIHYVYFDFHHECRKMQWHRVKLLIDHLEKLGLSNEDFFHKVIDSNGNTVEIVNEQHSVVRTNCMDCLDRTNVVQSVLAQWVLQKEFESADVVATGSTWEDNAPLLTSYQNLWADNADAVSVAYSGTGALKTDFTRTGKRTRLGAFNDFLNSASRYYQNNWTDGPRQDSYDLFLGGFRPHTASIKSPFPDRRPVYIQLIPMIICAALTVLGATIFFPKDRFTSSKNLLYFAGASIVLALSTKFMFKNGIQFVNWPKLVDVGFLVVHQTHDKEQQFKGLKYAQSPKFSKPDPLKRD
B4: Tsc3 (small regulatory subunit of serine palmitoyltransferase) (protein, UniProt Q3E790 1-80)
chain: MTQHKSSMVYIPTTKEAKRRNGKSEGILNTIEEVVEKLYWTYYIHLPFYLMASFDSFFLHVFFLTIFSLSFFGILKYCFL

These molecules were tested against T1, SPOT-ALFA-tagged Lcb2 (serine palmitoyltransferase catalytic subunit Lcb2) (yeast) (assay: affinity purification with mass spectrometry).
Orm1 (from UniProt P53224 1-222) was tested, and the binding was “binds”.
In the case of B1, the binding is reported as “binds”.
In the case of B2, the binding is reported as “binds”.
With B3 the binding was “binds”.
With B4 the binding was “binds”.
